Experimental data reported in WO2025037032A1.
No constants are given. Whether binding was seen depends on the method and setting. Some results given as binding are weak or reduced against the parent protein; the word gives no strength.

By UniProt entry, the sequences of proteins in these tests, tags left out. Where a name states a change or a piece, a line headed by the entry shows the natural chain unless it says otherwise. Residues count along the entry.
UniProt P02461, residues 154-1221: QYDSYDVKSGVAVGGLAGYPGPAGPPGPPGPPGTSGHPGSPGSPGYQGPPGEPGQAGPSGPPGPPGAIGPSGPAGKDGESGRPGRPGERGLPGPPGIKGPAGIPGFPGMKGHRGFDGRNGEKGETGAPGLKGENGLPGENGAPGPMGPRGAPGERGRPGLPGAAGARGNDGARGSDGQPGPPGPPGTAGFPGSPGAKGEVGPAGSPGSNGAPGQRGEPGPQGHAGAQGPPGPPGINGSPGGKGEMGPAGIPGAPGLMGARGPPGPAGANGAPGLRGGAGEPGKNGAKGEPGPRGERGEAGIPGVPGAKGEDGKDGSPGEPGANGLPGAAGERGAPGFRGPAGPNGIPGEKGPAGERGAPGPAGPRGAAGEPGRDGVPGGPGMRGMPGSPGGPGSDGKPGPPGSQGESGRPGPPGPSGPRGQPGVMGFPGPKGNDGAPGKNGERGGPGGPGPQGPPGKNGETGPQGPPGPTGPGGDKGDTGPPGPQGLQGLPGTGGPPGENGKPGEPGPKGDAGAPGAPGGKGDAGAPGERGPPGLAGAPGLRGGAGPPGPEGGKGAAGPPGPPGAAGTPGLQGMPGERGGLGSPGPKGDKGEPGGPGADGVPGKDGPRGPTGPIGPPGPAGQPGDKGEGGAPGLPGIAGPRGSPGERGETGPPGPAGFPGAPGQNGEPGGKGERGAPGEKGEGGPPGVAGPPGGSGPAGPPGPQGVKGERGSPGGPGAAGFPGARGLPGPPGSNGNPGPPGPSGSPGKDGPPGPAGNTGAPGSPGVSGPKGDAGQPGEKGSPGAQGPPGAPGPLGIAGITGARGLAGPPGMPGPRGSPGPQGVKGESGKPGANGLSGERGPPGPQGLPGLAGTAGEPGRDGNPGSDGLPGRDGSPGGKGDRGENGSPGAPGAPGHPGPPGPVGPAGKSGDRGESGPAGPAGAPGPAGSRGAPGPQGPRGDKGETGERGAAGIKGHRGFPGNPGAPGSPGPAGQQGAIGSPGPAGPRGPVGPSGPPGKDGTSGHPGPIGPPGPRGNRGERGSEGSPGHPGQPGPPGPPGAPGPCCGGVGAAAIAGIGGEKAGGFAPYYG
UniProt P04275: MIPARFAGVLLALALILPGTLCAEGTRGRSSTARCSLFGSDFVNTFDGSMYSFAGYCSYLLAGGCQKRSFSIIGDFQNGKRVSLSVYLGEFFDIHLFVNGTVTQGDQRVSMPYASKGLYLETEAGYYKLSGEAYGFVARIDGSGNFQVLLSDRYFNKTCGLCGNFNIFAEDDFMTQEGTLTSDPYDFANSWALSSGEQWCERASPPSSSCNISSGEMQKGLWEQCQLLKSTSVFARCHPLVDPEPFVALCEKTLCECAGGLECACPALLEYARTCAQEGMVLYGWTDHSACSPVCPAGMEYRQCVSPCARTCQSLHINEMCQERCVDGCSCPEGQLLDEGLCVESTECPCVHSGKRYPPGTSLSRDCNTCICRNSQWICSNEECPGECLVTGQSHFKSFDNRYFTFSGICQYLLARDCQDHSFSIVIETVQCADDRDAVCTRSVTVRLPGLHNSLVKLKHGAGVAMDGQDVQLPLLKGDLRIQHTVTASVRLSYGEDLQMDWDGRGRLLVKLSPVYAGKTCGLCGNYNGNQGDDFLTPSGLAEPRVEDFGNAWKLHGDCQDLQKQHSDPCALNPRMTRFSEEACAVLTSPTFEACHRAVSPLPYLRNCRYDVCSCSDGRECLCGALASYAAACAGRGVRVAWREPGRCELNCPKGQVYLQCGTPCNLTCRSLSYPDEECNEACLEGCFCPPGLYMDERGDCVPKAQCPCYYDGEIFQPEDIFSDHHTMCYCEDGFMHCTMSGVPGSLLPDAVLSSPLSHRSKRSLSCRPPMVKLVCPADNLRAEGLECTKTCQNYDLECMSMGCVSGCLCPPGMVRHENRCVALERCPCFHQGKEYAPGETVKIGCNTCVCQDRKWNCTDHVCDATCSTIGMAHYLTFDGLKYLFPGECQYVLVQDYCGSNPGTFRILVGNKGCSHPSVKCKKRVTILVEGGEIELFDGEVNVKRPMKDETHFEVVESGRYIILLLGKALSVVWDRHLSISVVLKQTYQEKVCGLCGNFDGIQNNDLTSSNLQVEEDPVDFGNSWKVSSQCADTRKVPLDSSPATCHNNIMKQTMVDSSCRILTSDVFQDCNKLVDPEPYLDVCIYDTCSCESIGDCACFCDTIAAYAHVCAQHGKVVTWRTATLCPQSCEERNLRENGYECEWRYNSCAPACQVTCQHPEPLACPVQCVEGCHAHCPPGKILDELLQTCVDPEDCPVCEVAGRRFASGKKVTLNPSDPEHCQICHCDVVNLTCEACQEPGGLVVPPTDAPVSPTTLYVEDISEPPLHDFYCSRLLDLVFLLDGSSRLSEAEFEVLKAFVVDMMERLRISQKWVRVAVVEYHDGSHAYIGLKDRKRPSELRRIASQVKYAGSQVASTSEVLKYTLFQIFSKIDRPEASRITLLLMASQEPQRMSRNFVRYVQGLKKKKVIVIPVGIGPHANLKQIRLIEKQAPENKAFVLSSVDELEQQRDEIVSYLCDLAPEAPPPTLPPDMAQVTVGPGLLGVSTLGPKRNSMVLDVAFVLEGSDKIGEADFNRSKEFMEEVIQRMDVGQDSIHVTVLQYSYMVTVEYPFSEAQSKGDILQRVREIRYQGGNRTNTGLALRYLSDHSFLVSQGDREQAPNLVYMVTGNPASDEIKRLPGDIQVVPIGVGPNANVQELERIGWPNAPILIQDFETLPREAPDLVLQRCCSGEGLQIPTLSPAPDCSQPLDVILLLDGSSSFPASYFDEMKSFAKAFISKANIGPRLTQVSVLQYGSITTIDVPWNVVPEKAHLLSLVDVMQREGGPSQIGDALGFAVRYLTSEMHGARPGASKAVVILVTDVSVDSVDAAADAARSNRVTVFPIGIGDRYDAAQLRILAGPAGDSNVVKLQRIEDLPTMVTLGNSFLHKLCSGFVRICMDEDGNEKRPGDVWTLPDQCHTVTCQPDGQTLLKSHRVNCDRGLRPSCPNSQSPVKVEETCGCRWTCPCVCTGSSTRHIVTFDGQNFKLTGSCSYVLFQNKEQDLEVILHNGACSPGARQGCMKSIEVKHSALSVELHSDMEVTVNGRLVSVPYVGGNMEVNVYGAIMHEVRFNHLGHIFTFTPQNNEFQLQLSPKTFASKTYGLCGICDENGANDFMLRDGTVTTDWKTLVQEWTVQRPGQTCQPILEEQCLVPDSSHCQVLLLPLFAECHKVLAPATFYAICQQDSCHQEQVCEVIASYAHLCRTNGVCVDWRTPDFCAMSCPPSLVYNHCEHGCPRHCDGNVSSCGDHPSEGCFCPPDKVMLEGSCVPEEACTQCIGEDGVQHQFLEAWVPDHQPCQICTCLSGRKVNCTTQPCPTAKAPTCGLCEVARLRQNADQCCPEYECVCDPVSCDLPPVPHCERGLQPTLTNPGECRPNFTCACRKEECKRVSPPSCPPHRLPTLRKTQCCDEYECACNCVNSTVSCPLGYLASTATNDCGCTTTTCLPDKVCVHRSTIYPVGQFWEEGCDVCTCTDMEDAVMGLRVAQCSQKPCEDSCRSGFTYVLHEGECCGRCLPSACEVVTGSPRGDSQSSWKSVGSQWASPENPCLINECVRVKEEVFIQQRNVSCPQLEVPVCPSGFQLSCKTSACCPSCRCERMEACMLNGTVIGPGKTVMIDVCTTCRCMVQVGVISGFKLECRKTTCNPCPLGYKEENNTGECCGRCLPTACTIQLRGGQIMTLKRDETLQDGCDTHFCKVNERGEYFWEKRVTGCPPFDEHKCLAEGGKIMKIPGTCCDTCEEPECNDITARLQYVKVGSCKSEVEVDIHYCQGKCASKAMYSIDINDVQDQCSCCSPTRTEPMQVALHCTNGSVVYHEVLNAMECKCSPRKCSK

Key:
[1] = target: collagen type III from human placenta (human) (UniProt P02461); assay: ELISA; 2 nM plasma-derived VWF on coated human placenta collagen III, pre-incubated with 0 or 300 nM monovalent antibodies
[2] = target: collagen type III from human placenta (human) (UniProt P02461); assay: ELISA; VWF of human plasma captured on coated human placenta collagen type III, in the presence of 600 nM one-arm antibodies

binding [1]: binds
binding [2]: binds
Substance: human plasma-derived VWF (from UniProt P04275 764-2813)
